# The supplement of paper PMC10849652
# Amino acid sequences for entries named in this document (tags omitted). A change or cut given only in a name is not applied to a line headed by its entry.
# UniProt Q92536: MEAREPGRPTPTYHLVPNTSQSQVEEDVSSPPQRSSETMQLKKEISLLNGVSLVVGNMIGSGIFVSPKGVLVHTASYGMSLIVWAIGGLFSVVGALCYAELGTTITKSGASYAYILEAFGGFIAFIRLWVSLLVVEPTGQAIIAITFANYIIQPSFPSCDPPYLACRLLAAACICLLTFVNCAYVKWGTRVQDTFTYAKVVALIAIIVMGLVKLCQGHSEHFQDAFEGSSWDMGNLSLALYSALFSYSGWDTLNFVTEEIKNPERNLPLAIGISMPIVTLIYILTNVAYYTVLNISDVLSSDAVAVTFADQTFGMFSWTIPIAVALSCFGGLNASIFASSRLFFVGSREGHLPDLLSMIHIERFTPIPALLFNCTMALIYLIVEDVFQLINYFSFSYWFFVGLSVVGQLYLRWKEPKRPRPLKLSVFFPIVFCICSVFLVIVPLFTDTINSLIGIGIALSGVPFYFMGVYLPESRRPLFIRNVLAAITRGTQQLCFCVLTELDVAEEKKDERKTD
# UniProt Q15796, whole entry, looked up: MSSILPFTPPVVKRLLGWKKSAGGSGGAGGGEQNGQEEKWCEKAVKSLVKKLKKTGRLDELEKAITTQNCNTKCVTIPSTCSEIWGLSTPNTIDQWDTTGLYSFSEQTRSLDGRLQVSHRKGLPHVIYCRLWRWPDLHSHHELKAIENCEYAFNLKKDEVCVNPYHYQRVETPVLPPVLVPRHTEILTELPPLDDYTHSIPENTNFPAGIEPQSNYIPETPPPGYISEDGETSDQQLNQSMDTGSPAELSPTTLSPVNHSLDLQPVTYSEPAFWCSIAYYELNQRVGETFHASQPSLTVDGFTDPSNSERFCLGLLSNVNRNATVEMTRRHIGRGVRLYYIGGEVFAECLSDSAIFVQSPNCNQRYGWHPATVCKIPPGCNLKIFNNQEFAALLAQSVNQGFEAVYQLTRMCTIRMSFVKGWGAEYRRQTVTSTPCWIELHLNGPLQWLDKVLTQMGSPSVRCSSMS
# UniProt Q9H2H9: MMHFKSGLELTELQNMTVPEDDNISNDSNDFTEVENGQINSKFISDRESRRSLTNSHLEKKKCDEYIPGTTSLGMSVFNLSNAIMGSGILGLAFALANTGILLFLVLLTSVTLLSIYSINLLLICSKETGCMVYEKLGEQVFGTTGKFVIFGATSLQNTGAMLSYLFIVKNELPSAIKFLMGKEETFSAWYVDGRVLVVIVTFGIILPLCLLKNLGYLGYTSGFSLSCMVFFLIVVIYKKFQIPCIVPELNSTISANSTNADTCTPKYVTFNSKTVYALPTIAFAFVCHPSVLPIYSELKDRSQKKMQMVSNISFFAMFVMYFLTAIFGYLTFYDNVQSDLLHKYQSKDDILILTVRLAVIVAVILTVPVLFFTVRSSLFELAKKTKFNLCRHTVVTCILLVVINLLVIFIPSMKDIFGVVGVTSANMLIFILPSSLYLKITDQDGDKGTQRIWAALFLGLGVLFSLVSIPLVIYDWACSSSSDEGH
# UniProt Q9UJS0: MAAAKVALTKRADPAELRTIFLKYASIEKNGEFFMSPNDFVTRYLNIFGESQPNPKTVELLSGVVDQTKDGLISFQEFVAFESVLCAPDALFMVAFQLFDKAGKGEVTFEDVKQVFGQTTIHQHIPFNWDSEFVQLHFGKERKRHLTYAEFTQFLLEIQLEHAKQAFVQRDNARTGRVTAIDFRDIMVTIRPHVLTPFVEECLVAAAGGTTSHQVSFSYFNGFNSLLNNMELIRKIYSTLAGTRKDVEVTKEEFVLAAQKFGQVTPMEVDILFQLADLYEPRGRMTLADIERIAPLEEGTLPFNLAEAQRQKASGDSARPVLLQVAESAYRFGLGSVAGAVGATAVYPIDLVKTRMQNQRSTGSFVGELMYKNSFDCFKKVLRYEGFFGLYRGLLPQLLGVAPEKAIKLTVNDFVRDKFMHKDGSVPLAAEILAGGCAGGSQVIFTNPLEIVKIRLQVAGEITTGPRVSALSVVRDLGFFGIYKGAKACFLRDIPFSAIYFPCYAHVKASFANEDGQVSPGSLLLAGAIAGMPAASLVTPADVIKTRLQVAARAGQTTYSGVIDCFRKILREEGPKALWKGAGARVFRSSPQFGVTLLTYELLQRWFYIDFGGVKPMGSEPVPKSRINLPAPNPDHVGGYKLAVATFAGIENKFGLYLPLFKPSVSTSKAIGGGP
# UniProt Q9Y6M7: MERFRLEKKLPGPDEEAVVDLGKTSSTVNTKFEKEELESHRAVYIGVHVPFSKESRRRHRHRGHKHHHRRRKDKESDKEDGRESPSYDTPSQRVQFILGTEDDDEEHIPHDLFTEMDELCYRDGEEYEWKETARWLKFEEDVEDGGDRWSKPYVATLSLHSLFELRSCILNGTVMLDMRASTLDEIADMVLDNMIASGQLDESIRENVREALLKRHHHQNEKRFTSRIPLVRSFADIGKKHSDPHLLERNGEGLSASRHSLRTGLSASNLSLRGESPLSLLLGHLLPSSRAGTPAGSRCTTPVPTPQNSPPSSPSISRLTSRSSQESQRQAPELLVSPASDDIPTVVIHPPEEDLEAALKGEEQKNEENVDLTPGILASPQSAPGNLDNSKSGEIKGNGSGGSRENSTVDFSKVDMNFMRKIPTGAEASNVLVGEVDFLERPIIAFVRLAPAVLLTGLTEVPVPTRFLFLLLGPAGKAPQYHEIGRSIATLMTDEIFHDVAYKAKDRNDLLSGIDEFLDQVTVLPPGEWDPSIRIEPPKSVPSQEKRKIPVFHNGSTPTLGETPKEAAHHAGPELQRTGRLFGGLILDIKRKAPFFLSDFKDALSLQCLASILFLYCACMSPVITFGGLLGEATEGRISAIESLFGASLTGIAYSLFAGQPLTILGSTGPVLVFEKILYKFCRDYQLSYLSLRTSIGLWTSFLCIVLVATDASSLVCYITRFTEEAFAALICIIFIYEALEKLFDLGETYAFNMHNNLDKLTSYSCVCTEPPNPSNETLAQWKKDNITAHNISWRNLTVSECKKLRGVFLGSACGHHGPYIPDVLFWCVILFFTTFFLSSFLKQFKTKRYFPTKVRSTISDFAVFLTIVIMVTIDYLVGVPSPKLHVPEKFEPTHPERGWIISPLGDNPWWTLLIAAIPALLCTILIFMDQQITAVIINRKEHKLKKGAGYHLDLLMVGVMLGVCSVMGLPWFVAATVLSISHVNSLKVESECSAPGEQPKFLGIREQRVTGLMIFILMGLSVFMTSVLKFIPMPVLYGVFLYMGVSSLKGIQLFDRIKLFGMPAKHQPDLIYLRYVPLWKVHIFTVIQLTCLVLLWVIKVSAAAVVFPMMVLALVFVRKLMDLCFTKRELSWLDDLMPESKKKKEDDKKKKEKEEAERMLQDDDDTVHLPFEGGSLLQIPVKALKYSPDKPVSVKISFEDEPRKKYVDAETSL
# UniProt Q8N357: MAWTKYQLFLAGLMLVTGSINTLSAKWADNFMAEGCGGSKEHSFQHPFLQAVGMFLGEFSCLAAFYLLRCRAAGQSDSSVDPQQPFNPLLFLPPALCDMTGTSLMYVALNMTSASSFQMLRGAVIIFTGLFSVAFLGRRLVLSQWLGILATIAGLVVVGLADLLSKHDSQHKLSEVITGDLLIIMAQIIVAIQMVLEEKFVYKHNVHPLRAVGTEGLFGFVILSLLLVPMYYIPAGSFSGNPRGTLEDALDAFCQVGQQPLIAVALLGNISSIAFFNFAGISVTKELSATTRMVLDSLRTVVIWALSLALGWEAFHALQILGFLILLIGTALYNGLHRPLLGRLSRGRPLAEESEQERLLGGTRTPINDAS
# UniProt Q8IWA5: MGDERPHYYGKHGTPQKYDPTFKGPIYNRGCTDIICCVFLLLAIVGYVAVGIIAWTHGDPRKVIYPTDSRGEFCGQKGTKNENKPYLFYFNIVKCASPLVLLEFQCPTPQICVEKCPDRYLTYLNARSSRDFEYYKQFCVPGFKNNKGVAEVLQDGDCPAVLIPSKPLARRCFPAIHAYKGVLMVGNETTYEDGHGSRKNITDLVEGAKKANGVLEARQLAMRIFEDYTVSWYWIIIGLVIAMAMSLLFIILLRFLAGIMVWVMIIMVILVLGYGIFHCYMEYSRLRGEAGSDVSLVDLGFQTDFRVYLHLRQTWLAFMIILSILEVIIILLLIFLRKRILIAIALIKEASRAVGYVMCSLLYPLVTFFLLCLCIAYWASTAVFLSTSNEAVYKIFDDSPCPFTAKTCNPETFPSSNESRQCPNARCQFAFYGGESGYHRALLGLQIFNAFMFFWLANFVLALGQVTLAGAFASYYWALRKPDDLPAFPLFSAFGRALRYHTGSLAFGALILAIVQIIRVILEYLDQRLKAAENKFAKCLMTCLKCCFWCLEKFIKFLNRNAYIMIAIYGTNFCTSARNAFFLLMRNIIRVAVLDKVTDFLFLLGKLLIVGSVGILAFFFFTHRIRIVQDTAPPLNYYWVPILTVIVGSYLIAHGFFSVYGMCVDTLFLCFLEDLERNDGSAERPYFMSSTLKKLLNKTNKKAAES
# UniProt Q9UPY5: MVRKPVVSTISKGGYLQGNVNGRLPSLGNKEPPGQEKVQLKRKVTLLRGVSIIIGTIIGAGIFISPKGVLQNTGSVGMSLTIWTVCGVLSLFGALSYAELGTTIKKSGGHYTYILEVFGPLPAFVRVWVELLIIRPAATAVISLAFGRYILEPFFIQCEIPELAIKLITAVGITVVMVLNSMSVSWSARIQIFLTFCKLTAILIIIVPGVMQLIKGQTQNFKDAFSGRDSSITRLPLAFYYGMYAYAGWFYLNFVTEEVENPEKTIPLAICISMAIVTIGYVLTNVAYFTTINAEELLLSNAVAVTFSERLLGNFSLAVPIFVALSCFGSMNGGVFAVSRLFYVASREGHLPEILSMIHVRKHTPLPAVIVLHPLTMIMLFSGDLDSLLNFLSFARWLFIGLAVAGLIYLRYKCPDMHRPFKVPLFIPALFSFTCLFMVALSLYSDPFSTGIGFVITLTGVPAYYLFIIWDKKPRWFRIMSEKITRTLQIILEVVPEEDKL
# UniProt Q9HBR0: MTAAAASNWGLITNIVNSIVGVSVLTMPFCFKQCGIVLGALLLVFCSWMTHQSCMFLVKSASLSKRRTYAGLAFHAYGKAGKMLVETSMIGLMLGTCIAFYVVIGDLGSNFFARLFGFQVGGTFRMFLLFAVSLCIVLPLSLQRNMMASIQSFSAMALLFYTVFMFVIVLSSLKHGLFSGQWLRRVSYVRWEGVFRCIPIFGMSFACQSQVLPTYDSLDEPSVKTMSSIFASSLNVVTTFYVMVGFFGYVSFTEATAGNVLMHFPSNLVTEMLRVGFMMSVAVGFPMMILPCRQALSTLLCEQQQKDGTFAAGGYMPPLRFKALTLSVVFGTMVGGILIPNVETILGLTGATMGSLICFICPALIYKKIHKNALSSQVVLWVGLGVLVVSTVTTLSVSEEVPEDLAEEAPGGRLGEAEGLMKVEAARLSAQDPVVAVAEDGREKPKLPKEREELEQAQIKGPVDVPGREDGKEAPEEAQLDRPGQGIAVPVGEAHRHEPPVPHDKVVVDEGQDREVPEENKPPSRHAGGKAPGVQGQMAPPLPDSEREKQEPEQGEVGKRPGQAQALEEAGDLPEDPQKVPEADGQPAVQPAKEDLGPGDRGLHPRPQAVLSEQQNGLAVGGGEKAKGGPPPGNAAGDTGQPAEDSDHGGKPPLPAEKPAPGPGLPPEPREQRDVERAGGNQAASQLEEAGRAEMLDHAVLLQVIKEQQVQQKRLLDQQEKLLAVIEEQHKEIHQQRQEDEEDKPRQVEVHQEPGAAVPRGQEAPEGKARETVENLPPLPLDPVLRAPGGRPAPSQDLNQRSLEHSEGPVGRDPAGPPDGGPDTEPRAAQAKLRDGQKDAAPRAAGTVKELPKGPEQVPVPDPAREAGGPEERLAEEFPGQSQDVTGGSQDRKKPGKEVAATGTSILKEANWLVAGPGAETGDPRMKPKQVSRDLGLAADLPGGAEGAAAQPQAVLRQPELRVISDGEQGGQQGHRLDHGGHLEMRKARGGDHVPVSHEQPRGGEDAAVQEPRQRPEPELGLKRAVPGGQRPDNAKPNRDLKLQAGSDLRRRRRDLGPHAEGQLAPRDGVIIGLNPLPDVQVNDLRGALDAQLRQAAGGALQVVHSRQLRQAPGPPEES
# UniProt Q96AG3: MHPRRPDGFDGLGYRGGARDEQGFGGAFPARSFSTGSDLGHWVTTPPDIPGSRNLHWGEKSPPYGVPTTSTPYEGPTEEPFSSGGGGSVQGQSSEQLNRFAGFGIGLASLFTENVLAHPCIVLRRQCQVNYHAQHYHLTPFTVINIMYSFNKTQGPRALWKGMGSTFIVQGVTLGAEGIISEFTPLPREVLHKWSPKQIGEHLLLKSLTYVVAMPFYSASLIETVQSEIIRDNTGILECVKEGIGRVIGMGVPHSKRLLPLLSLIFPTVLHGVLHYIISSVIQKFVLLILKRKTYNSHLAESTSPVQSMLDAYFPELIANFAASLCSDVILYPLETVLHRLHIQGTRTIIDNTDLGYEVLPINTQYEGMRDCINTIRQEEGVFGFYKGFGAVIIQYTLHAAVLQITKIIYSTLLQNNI
# Some of the results follow.
# Assays:
# Assay in all cases: log2 fold change, soluble protein after heating vs DMSO (PISA); higher = thermal stabilisation; K562 lysate, 10 uM; active = over 0.2 and 3.5 SD of the protein, either way, in both replicates (recomputed)
# ibrutinib = compound: C=CC(=O)N1CCC[C@@H](n2nc(-c3ccc(Oc4ccccc4)cc3)c3c(N)ncnc32)C1 [ibrutinib]
# How it was run: (§1)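 Dounce homogenisation of K562 pellets in PBS pH 7.4 with 1 mM MgCl2 produced a crude extract, used at 1 mg/mL protein. Exposure to 10 μM compound lasted 30 min, and aliquots were then heated for 3 min across 48°C-58°C, pooled and brought to 0.5% NP-40 at 4°C. The supernatant after 21,000xg for 90 min was quantified by TMTpro 16plex LC-MS/MS with channel sums equalised. Duplicate values are given as log-two fold change in thermal stability relative to solvent controls.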
# [1] = compound: CC(=O)c1cnc2ccc(-c3cc(Cl)c(O)c(Cl)c3)nc2c1N[C@H]1CC[C@H](CN(C)C)CC1
# How it was run: as §1
# ralimetinib = compound: CC(C)(C)Cn1c(N)nc2ccc(-c3[nH]c(C(C)(C)C)nc3-c3ccc(F)cc3)nc21 [ralimetinib]
# How it was run: as §1
# [2] = compound: CC(C)(O)CC(=O)NCCn1ccc2ncnc(Nc3ccc(Oc4cccc(C(F)(F)F)c4)c(Cl)c3)c21
# How it was run: as §1
# [3] = compound: CC(C)C1=C2N=C(C=C(N2N=C1)NCC3=CC=CC=C3)NCCCCCCN
# How it was run: as §1
# [4] = compound: CC1=C(C(CC(=O)N1)C2=CC=C(C=C2)C(F)(F)F)C(=O)NC3=C(C=C4C(=C3)C=NN4)F
# How it was run: as §1
# [5] = compound: CC1=C(C2=C(C=C1)C(=O)C3=CC=CC=C3N2CCCN)C
# How it was run: as §1
# [6] = compound: CC1=C(C=C(C=C1)NC(=O)C2=CC(=CC=C2)C(C)(C)C#N)NC3=CC4=C(C=C3)N=CN(C4=O)C
# How it was run: as §1
# [7] = compound: CC1=C(C=C(C=C1)NC(=O)C2=CC(=CC=C2)N(C)C)NC(=O)C3=CC=C(C=C3)O
# How it was run: as §1
# [8] = compound: CC1=CC=C(C=C1)SC2=C3C=C(SC3=CN=C2)C(=O)N
# How it was run: as §1
# vemurafenib = compound: CCCS(=O)(=O)Nc1ccc(F)c(C(=O)c2c[nH]c3ncc(-c4ccc(Cl)cc4)cc23)c1F [vemurafenib]
# How it was run: as §1
# [9] = compound: CCCS(=O)(=O)Nc1ccc(F)c(C(=O)c2c[nH]c3ncc(Cl)cc23)c1F
# How it was run: as §1
# barasertib = compound: CCN(CCCOc1ccc2c(Nc3cc(CC(=O)Nc4cccc(F)c4)[nH]n3)ncnc2c1)CCOP(=O)(O)O [barasertib]
# How it was run: as §1
# [10] = compound: CC[C@@H]1C(=O)N(C)c2cnc(Nc3ccc(C(=O)NC4CCN(C)CC4)cc3OC)nc2N1C1CCCC1
# How it was run: as §1
# volasertib = compound: CC[C@@H]1C(=O)N(C)c2cnc(Nc3ccc(C(=O)N[C@H]4CC[C@H](N5CCN(CC6CC6)CC5)CC4)cc3OC)nc2N1C(C)C [volasertib]
# How it was run: as §1
# [11] = compound: CCn1c(C(=O)N(C2CC2)C2CC2)cc2c3c(ncn3C)c(Nc3cc(C)n(C)n3)nc21
# How it was run: as §1
# [12] = compound: CCn1cc(-c2ccnc3[nH]c(-c4cccc(CN(C)C)c4)cc23)c(-c2ccc(NC(=O)N(C)C)cc2)n1
# How it was run: as §1
# [13] = compound: CN1CCC(CNc2ccc3ncc(-c4cccc(OC(F)(F)F)c4)n3n2)CC1
# How it was run: as §1
# saracatinib = compound: CN1CCN(CCOc2cc(OC3CCOCC3)c3c(Nc4c(Cl)ccc5c4OCO5)ncnc3c2)CC1 [saracatinib]
# How it was run: as §1
# sotrastaurin = compound: CN1CCN(c2nc(C3=C(c4c[nH]c5ccccc45)C(=O)NC3=O)c3ccccc3n2)CC1 [sotrastaurin]
# How it was run: as §1
Target,log2 fold change (ibrutinib),log2 fold change [1],log2 fold change (ralimetinib),log2 fold change [2],log2 fold change [3],log2 fold change [4],log2 fold change [5],log2 fold change [6],log2 fold change [7],log2 fold change [8],log2 fold change (vemurafenib),log2 fold change [9],log2 fold change (barasertib),log2 fold change [10],log2 fold change (volasertib),log2 fold change [11],log2 fold change [12],log2 fold change [13],log2 fold change (saracatinib),log2 fold change (sotrastaurin)
SLC7A6 (UniProt Q92536),inactive: 0.113,inactive: -0.03,inactive: 0.027,inactive: -0.129,inactive: -0.06,inactive: -0.323,inactive: 0.005,inactive: 0.01,inactive: -0.002,inactive: -0.028,inactive: 0.06,inactive: 0.018,inactive: -0.002,inactive: 0.048,inactive: 0.049,inactive: -0.044,inactive: -0.077,inactive: 0.127,inactive: -0.02,inactive: 0.015
SMAD2 (UniProt Q15796),inactive: 0.041,inactive: -0.014,inactive: 0.025,inactive: 0.012,inactive: 0.005,inactive: -0.061,inactive: -0.014,inactive: 0.054,inactive: 0.029,inactive: 0.017,inactive: -0.027,inactive: 0.074,inactive: 0.03,inactive: -0.031,inactive: -0.006,inactive: -0.027,inactive: 0.025,inactive: -0.003,inactive: 0.017,inactive: -0.002
SLC38A1 (UniProt Q9H2H9),inactive: 0.001,inactive: -0.053,inactive: -0.021,inactive: -0.041,inactive: 0.037,inactive: -0.001,inactive: -0.039,inactive: 0.027,inactive: 0.018,inactive: -0.01,inactive: 0.03,inactive: -0.007,inactive: 0,inactive: 0.035,inactive: 0.066,inactive: 0.008,active: -0.269,inactive: 0.102,inactive: -0.002,inactive: 0.024
SLC25A13 isoform 2 (UniProt Q9UJS0),inactive: 0.017,inactive: -0.006,inactive: -0.012,inactive: -0.02,inactive: -0.014,inactive: -0.006,inactive: 0.007,inactive: 0.01,inactive: 0.012,inactive: 0.035,inactive: 0.013,inactive: -0.002,inactive: -0.008,inactive: 0.026,inactive: 0.016,inactive: -0.022,inactive: -0.098,inactive: 0.036,inactive: -0.003,inactive: 0.029
SLC4A7 isoform 7 (UniProt Q9Y6M7),inactive: 0.011,inactive: 0.019,inactive: -0.009,inactive: -0.056,inactive: -0.006,inactive: -0.039,inactive: 0.002,inactive: 0.043,inactive: 0.013,inactive: 0.006,inactive: -0.016,inactive: 0.066,inactive: 0.347,inactive: 0.031,inactive: 0.01,inactive: 0.006,inactive: 0.133,inactive: -0.095,inactive: -0.025,inactive: -0.018
SLMAP isoform 3 (UniProt Q14BN4),inactive: -0.029,inactive: 0,inactive: 0.012,inactive: -0.03,inactive: -0.016,inactive: 0.022,inactive: -0.006,inactive: 0.006,inactive: 0.023,inactive: 0.008,inactive: 0.047,inactive: -0.005,inactive: 0.084,inactive: -0.008,inactive: -0.02,inactive: -0.019,inactive: 0.014,inactive: 0.012,inactive: 0.037,inactive: 0.05
SLC26A6 (UniProt Q9BXS9),inactive: -0.242,inactive: 0.018,inactive: 0.019,inactive: -0.056,inactive: -0.05,inactive: -0.157,inactive: -0.022,inactive: 0.017,inactive: 0.033,inactive: -0.056,inactive: 0.106,inactive: 0.086,active: 0.421,inactive: 0.055,inactive: 0.008,inactive: 0.017,inactive: -0.095,inactive: 0.036,inactive: -0.126,inactive: 0.005
SLC35F6 (UniProt Q8N357),inactive: -0.061,inactive: -0.015,inactive: 0.052,inactive: 0.032,inactive: 0.015,inactive: 0.003,inactive: -0.049,inactive: -0.068,inactive: 0.028,inactive: -0.022,inactive: -0.034,inactive: 0.027,inactive: 0.006,inactive: -0.036,inactive: -0.001,inactive: -0.018,inactive: 0,inactive: -0.082,inactive: -0.008,inactive: 0.158
SLC25A3 isoform 2 (UniProt Q00325),inactive: 0.024,inactive: -0.015,inactive: 0.027,inactive: -0.01,inactive: 0.014,inactive: -0.004,inactive: -0.001,inactive: 0.032,inactive: -0.005,inactive: 0.016,inactive: -0.006,inactive: 0.001,inactive: -0.018,inactive: 0.011,inactive: 0.037,inactive: -0.031,inactive: -0.104,inactive: 0.046,inactive: 0.03,inactive: -0.005
SLC44A2 (UniProt Q8IWA5),inactive: -0.089,inactive: -0.023,inactive: -0.035,inactive: -0.119,inactive: 0.021,inactive: 0.042,inactive: -0.059,inactive: 0.025,inactive: 0.03,inactive: -0.051,inactive: -0.065,inactive: -0.026,inactive: -0.027,inactive: 0.099,inactive: 0.081,inactive: -0.226,inactive: -0.091,inactive: -0.062,inactive: 0.035,inactive: 0.064
SLC7A11 (UniProt Q9UPY5),inactive: 0.028,inactive: -0.007,inactive: 0.061,inactive: -0.103,inactive: -0.043,inactive: -0.048,inactive: -0.045,inactive: 0.039,inactive: -0.007,inactive: -0.032,inactive: -0.019,inactive: 0.054,inactive: 0.029,inactive: 0.032,inactive: 0.013,inactive: -0.025,inactive: -0.091,inactive: 0.032,inactive: 0.072,inactive: -0.047
SLIRP (UniProt Q9GZT3),inactive: -0.036,inactive: 0.015,inactive: -0.019,inactive: -0.03,inactive: -0.003,inactive: 0.004,inactive: -0.017,inactive: 0.023,inactive: -0.029,inactive: -0.036,inactive: -0.012,inactive: 0,inactive: -0.044,inactive: 0.039,inactive: 0.004,inactive: 0.015,inactive: -0.24,inactive: 0.034,inactive: -0.011,inactive: -0.026
SLC4A1AP (UniProt Q9BWU0),inactive: 0,inactive: -0.005,inactive: 0.039,inactive: -0.01,inactive: -0.001,inactive: -0.034,inactive: -0.005,inactive: 0.014,inactive: -0.001,inactive: -0.015,inactive: 0.014,inactive: 0.019,inactive: -0.026,inactive: 0.008,inactive: 0.008,inactive: -0.027,inactive: 0.015,inactive: -0.002,inactive: 0.018,inactive: 0.012
SLC38A10 (UniProt Q9HBR0),inactive: 0.103,inactive: -0.047,inactive: -0.025,inactive: -0.056,inactive: -0.007,inactive: -0.051,inactive: -0.018,inactive: 0.032,inactive: -0.001,inactive: -0.027,inactive: 0.1,inactive: -0.008,inactive: 0.014,inactive: 0.111,inactive: -0.015,inactive: -0.022,active: -0.229,inactive: 0.022,inactive: 0.024,inactive: 0.015
SLC25A46 (UniProt Q96AG3),inactive: 0.078,inactive: -0.025,inactive: 0.009,inactive: -0.058,inactive: -0.018,inactive: -0.033,inactive: 0.026,inactive: 0.014,inactive: -0.019,inactive: -0.065,inactive: 0.04,inactive: 0.022,inactive: 0.005,inactive: 0.026,inactive: -0.014,inactive: 0.009,inactive: -0.014,inactive: 0.037,inactive: -0.032,inactive: 0.08
SLC9A1 (UniProt P19634),inactive: 0.045,inactive: 0.036,inactive: -0.027,inactive: -0.063,inactive: -0.086,inactive: -0.08,inactive: 0.021,inactive: -0.044,inactive: 0.221,inactive: -0.044,inactive: 0.023,inactive: 0.141,inactive: -0.09,inactive: -0.032,inactive: 0.071,inactive: -0.148,inactive: -0.012,inactive: 0.022,inactive: 0.011,inactive: -0.031

# No new results follow: an excerpt of the list.
Target,log2 fold change (ibrutinib),log2 fold change [1],log2 fold change (ralimetinib),log2 fold change [2],log2 fold change [3],log2 fold change [4],log2 fold change [5],log2 fold change [6],log2 fold change [7],log2 fold change [8],log2 fold change (vemurafenib),log2 fold change [9],log2 fold change (barasertib),log2 fold change [10],log2 fold change (volasertib),log2 fold change [11],log2 fold change [12],log2 fold change [13],log2 fold change (saracatinib),log2 fold change (sotrastaurin)
SLC4A7 isoform 7 (UniProt Q9Y6M7),inactive: 0.011,inactive: 0.019,inactive: -0.009,inactive: -0.056,inactive: -0.006,inactive: -0.039,inactive: 0.002,inactive: 0.043,inactive: 0.013,inactive: 0.006,inactive: -0.016,inactive: 0.066,inactive: 0.347,inactive: 0.031,inactive: 0.01,inactive: 0.006,inactive: 0.133,inactive: -0.095,inactive: -0.025,inactive: -0.018
SLMAP isoform 3 (UniProt Q14BN4),inactive: -0.029,inactive: 0,inactive: 0.012,inactive: -0.03,inactive: -0.016,inactive: 0.022,inactive: -0.006,inactive: 0.006,inactive: 0.023,inactive: 0.008,inactive: 0.047,inactive: -0.005,inactive: 0.084,inactive: -0.008,inactive: -0.02,inactive: -0.019,inactive: 0.014,inactive: 0.012,inactive: 0.037,inactive: 0.05
SLC26A6 (UniProt Q9BXS9),inactive: -0.242,inactive: 0.018,inactive: 0.019,inactive: -0.056,inactive: -0.05,inactive: -0.157,inactive: -0.022,inactive: 0.017,inactive: 0.033,inactive: -0.056,inactive: 0.106,inactive: 0.086,active: 0.421,inactive: 0.055,inactive: 0.008,inactive: 0.017,inactive: -0.095,inactive: 0.036,inactive: -0.126,inactive: 0.005
SLC35F6 (UniProt Q8N357),inactive: -0.061,inactive: -0.015,inactive: 0.052,inactive: 0.032,inactive: 0.015,inactive: 0.003,inactive: -0.049,inactive: -0.068,inactive: 0.028,inactive: -0.022,inactive: -0.034,inactive: 0.027,inactive: 0.006,inactive: -0.036,inactive: -0.001,inactive: -0.018,inactive: 0,inactive: -0.082,inactive: -0.008,inactive: 0.158
